This is an account of results in patent US20040197268A1, “Method of imaging amyloid deposits using substituted rhodanine derivatives” (priority 1999, published 2004).

Amino acid sequences for entries named in this document (tags omitted). Residues count along the entry.
UniProt P05067, 672-711 limits assumed: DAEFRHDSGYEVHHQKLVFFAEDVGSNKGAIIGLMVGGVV

Certain results were filed several times, with different values. Only these are listed. There may be further records. Values that stand side by side do not match, cause unknown; they may come from other doses, times, organisms or constructs than stated.

For this test, the target named is Aβ(1-40) (Homo sapiens, UniProt P05067). Description: BASSR (Beta-Amyloid Self-Seeding Radioassay), inhibitors of self-seeded amyloid fibril growth. To be noted: read-out: BASSR IC50; 30 μM soluble Aβ(1-40) + 125I-labeled Aβ(1-40), pH 7.5, 37° C., 3 to 5 hours, filtration. As to the method: BASSR (Beta-Amyloid Self-Seeding Radioassay)
An assay for inhibitors of self-seeded amyloid fibril growth
Assay Buffer—50 mM sodium phosphate, pH 7.5, 100 mM NaCl, 0.02% NaN3, 1 M urea (filter and store at 4° C.)
Soluble Aβ(1-40) peptide (Bachem, Torrance, Calif.)—2.2 mg/mL in deionized H2O (stored in aliquots at −20° C., keep on ice when thawed) will self-seed after 1 week storage. Typically, the solution should be stored until no lag phase is seen in the assay.
^125I-labeled Aβ(1-40)—150K-350K cpm/μL in 100% acetonitrile—0.1% trifluoroacetic acid (TFA)—1% β-mercaptoethanol (aliquots stored at −20° C.). ^125I-labeled Aβ(1-40) can be made in accordance with the procedure set forth by H. Levine, III in Neurobiol. Aging, 16:755 (1995), which is hereby incorporated by reference, or this reagent may be purchased from Amersham, Arlington Heights, Ill.
Final assay conditions: 30 μM soluble Aβ(1-40) in deionized water in assay buffer+20-50K cpm ^125I-labeled Aβ(1-40) per assay. […]
6) Remove the aluminum film and add 200 μL/well of ice cold assay buffer with urea, collecting the radiolabeled fibrils by vacuum filtration through 0.2 μm pore size GVWP filters in 96-well plates (Millipore MAGV N22, Bedford, Mass.). Determine the radioactivity of the filters using standard methods well-known to those skilled in the art.

The term IC50 denotes the concentration that gives 50% inhibition. Regarding `CCCCN(CCCC)c1ccc(/C=C2\SC(=S)N(Cc3nnn[nH]3)C2=O)cc1` [Example 20, (Z) 5-(4-Dibutylamino-benzylidene)-3(H-tetrazol-5-ylmethyl)-2-thioxo-thiazolidin-4-one], the IC50 is 1 µM and 8.5 µM.
